Data source: PubChem BioAssay AID743454 (Peter MacCallum Cancer Centre, 2014)
Shown is an unselected part of about 18,000 deposited reagents. Over the whole deposit, 450 (2.5%) are marked active. 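Single biological run; no consistent viability z cut-off exists, so the class columns, not z-scores, define the calls.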 Unmarked entries are inactive.

- Aim: 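Search for knock-downs that restore vorinostat killing in resistant colon cancer cells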 (primary screen)
- Cell system: human HCT116-VR colon cancer cells, selected for vorinostat resistance
- Knock-down reagent: siRNA pool against human genes, 40 nM siRNA pool
- Duration: vorinostat for 24 h, read-out about 72 h after transfection
- Conditions: vorinostat at 2.5 µM final
- Read-out: 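Cell viability by CellTiter-Fluor and caspase 3/7 activity by luminescence, each scaled to mock wells per plate, duplicates averaged, then robust z-scored over all plates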
- Reading the numbers: viability robust z-score: higher = more viable cells than screen typical; caspase robust z-score: higher = more caspase 3/7 activity than screen typical
- Rule for the call: 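Hits are knock-downs in viability class RV1/RV2 or caspase class CA1/CA2, excluding ones that killed cells in the no-drug cell-count arm; hits then retested with single siRNAs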

| Target gene | viability hit class | caspase hit class | viability robust z-score | caspase robust z-score |
| --- | --- | --- | --- | --- |
| DCHS1 | no change | no change | -1.04 | 1.53 |
| CNTN6 | no change | no change | 0.93 | -0.55 |
| TARP | no change | no change | -0.3 | 0.01 |
| ING2 | no change (active) | CA1 (caspase activation) | -0.8 | 5.63 |
| TRIM51EP | no change | no change | 0.7 | -0.15 |
| PSMC2 | no change | no change | -4.41 | 1.4 |
| TTL | no change | no change | -0.27 | -0.37 |
| SMARCA4 | no change | no change | 1.47 | 0.09 |
| MFAP4 | no change | no change | -1.31 | 2.09 |
| CCND2 | no change | no change | -2.51 | -0.31 |
| SNAI1 | no change | no change | 0.7 | 2.16 |
| GOLGA7B | no change | no change | -0.91 | -0.38 |
| TNRC6C | no change | no change | -0.92 | 1.6 |
| TMEM204 | no change | no change | 1.51 | -0.5 |
| MFAP5 | no change | no change | -0.9 | 1.56 |
| SUN3 | no change | no change | -0.29 | -0.88 |
| SECISBP2L | no change | no change | -0.73 | -0.88 |
| DLX3 | no change | no change | -0.44 | -0.86 |
| NR2C1 | no change | no change | 1.14 | 0.22 |
| FPR3 | no change | no change | -0.69 | 0.62 |
| TLE5 | no change | no change | 1.02 | -0.13 |

Reprinted from above (6 entries):
| Target gene | viability hit class | caspase hit class | viability robust z-score | caspase robust z-score |
| --- | --- | --- | --- | --- |
| DCHS1 | no change | no change | -1.04 | 1.53 |
| CNTN6 | no change | no change | 0.93 | -0.55 |
| TARP | no change | no change | -0.3 | 0.01 |
| ING2 | no change (active) | CA1 (caspase activation) | -0.8 | 5.63 |
| TRIM51EP | no change | no change | 0.7 | -0.15 |
| PSMC2 | no change | no change | -4.41 | 1.4 |

The listing continues:
| Target gene | viability hit class | caspase hit class | viability robust z-score | caspase robust z-score |
| --- | --- | --- | --- | --- |
| ZNF280C | no change | no change | 1.75 | 1.38 |
| FBXO27 | no change | no change | -0.63 | 1.62 |
| KCTD3 | no change | no change | -0.87 | 4.83 |
| FAAH | no change | no change | 0.8 | -0.61 |
| NAA60 | no change | no change | -0.2 | 3.49 |
| ANKRD22 | no change | no change | 1.64 | -0.59 |
| RBPJ | no change | no change | 0.12 | 0.48 |
| ZNF550 | no change | no change | 0.08 | 2.05 |
| LINC03122 | no change | no change | -1.16 | -0.22 |
| PEAR1 | no change | no change | -0.3 | 0.9 |
| RPS17 | no change | no change | -3.88 | -1.6 |
| DHX57 | no change | no change | -0.35 | -0.62 |
| SCNN1G | no change | no change | 0.07 | -0.11 |
| ME1 | no change | no change | 0.83 | -0.16 |
| TMEM132E-DT | no change | no change | -0.24 | 2.53 |
| SNURF | no change | no change | 0.54 | -0.36 |
| SLC25A46 | no change | no change | 0.24 | -0.89 |
| KPNA6 | no change | no change | -0.61 | -0.21 |
| SFRP1 | no change | no change | 0.68 | -1.51 |
| MTMR12 | no change | no change | 0.02 | -0.92 |
| OR1I1 | no change | no change | -1.23 | -0.46 |
| MPIG6B | no change | no change | 1.12 | 0.82 |
| PRSS8 | no change | no change | -0.94 | 0.2 |
| MPZ | no change | no change | -2.12 | 2.96 |
| ZNF324 | no change | no change | -1.76 | 3.05 |
| WDR77 | no change | no change | 1.95 | -0.58 |
| TNFRSF10C | no change | no change | -0.96 | -0.58 |
| SCAF8 | no change | no change | -0.14 | 0.4 |
| INPP5A | no change | no change | -0.96 | 1.9 |
| ATP5MF | no change | no change | -0.48 | -1.04 |
| ABCE1 | no change | no change | -0.13 | -0.44 |
| BTN2A2 | no change | no change | -0.51 | -0.94 |
| PHKG1 | no change | no change | -0.57 | -0.43 |
| HIPK2 | no change | no change | 0.18 | 1.08 |
| PRKRA | no change | no change | 0.24 | 2.39 |
| RTP2 | no change | no change | -0.52 | 2.13 |
